Source: PubChem BioAssay AID912 (NCATS, 2007).

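A cell-based FRET test of anthrax lethal toxin entry, tracked through the 460 nm emission signal; the cell line is not named here.
Each compound was tested as a concentration series from about 0.0005 to 40 µM.
The number is the fitted AC50 of the 460 nm signal alone; lower values mean a more potent effect. A falling signal goes with compounds filed as inhibitors or cytotoxic, a rising one with activators or fluorescent compounds (inferred from the filed classes).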

Values are in µM.
Common to all entries: measured here: 460 nm channel.
This is a side read-out of the assay, for part of the compounds, not drawn at random.
A potency from a partial, single-point or poor curve is only a rough figure.
The first word of each remark tells which way the curve ran; it can be opposite to the aim of the assay.

O=C(O)CBr gave AC50 1 µM (falling, partial curve, poor fit). Cc1oc(-c2cccc(Cl)c2)nc1CN1CCC(C(=O)NCc2ccco2)CC1 read AC50 2.512 µM (falling, partial curve). CCOC(=O)c1cc2sccc2n1CC(=O)N1CCCc2ccccc21 gave AC50 10 µM (falling, partial curve, poor fit). Cc1cc2nc3c(=O)[nH]c(=O)nc-3n(CC(O)C(O)C(O)CO)c2cc1C (centres undefined) read AC50 12.59 µM (falling, single point). With Cc1cc(C)n(-c2nc3ccccc3nc2N2CCCCCC2)n1 the assay gave AC50 25.12 µM (rising, single point). CCOC(=O)CSc1nc(-c2ccc(OC)cc2)ns1 read AC50 19.95 µM (rising, single point). CCCN1CC=C2C(C#N)=C(N)C(C#N)(C#N)C(c3cccc(OC)c3OC)C2C1 (centres undefined) read AC50 7.943 µM (rising, partial curve).

With CCOC(=O)c1cnc(SCC(=O)N2CCN(c3ccccc3)CC2)nc1N the assay gave AC50 12.59 µM (falling, single point). CCCCC(CC)COC(=O)C(C#N)=C(c1ccccc1)c1ccccc1 (centres undefined) gave AC50 7.943 µM (falling, full curve). Cc1nc(NCCN2CCOCC2)c2nnn(Cc3c(F)cccc3Cl)c2n1 gave AC50 0.07943 µM (falling, full curve, poor fit). Result for COc1ccc(-c2nc3cnc(N4CCOCC4)nc3n(-c3ccc(OC)cc3)c2=O)cc1 was AC50 10 µM (rising, partial curve). COc1ccc(N2CCCn3c2nc2c3c(=O)n(Cc3ccccc3F)c(=O)n2C)cc1 gave AC50 0.5012 µM (falling, partial curve, poor fit). Result for CC(C)(C)NC1=CC(=O)OC12CCCCC2 was AC50 12.59 µM (falling, partial curve, poor fit). With CC(C)(C)OC(=O)N1CCC(C(=O)N2CCC[C@H]2C(=O)O)CC1 the assay gave AC50 2.512 µM (rising, single point).

Result for CC(=O)NCc1ccc(-c2csc(N)n2)s1 was AC50 5.012 µM (falling, partial curve, poor fit). For Cc1n[nH]c(C)c1SCC(=O)Nc1ccc(F)cc1 the result was AC50 5.012 µM (falling, single point). Result for CCC(=NCc1ccco1)c1c(O)[nH]c(=O)[nH]c1=O was AC50 3.162 µM (rising, full curve). Cc1ccc(S(=O)(=O)N2CCOCC2)c(C)c1-n1cnnn1 gave AC50 2.512 µM (falling, single point).

Some entries from above, unchanged:

SMILES,AC50 (µM),curve as filed
CCOC(=O)c1cc2sccc2n1CC(=O)N1CCCc2ccccc21,10,"falling, partial curve, poor fit"
COc1ccc(N2CCCn3c2nc2c3c(=O)n(Cc3ccccc3F)c(=O)n2C)cc1,0.5012,"falling, partial curve, poor fit"